# Data as given in PubChem BioAssay AID504467 (National Center for Advancing Translational Sciences (NCATS), 2011).
# In all, about 330,000 compounds went through this assay and about 7,700 (2.3%) were called active. The inconclusive results got no clear call from the source; some entries with a clear call stand among them for comparison. The call rests on the fitted dose curve; in most records, active means well fitted inhibition curve with a large enough effect; inconclusive means small, poorly fitted or top-dose-only effect, or effect the other way; inactive means flat fitted curve, though single readings scatter. Potencies of inconclusive entries are doubtful fits and often do not repeat.
# Assay: qHTS screen for small molecules that inhibit ELG1-dependent DNA repair in human embryonic kidney (HEK293T) cells expressing luciferase-tagged ELG1; further: nearly all actives have a fitted effect of over 55% in size
# Conditions: HEK293T ELG1-luciferase reporter, luminescence, 16 h, DNA damage induced by 5-fluorouridine; activity change, negative = inhibition: at 46.1 µM (top of the series)
# Method in brief: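 Cells (2,000 per well) received 5-fluorouridine plus test compound or DMSO and were incubated 16 hr at 37 °C, 5% CO2. Luciferase activity was read by luminescence 30 min after ONE-Glo addition; signal suppression marked inhibition of damage-induced ELG1 function.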
# On the % scale 0 is the no-effect control and ±100 the full control effect; potency means the concentration at half of the fitted maximal effect.
Compound,"activity change, negative = inhibition",Potency
O=C(NCc1ccccc1)c1csc2c1CCCCC2,inactive: 21.2%,–
CCC(C)NC(=O)CN1C(=O)NC2(CCc3ccccc3C2)C1=O (configuration not stated),inactive: -0.102%,–
Cc1ccccc1N1CCN(C(=O)C2CCC(=O)N(C3CCCC3)C2)CC1 (configuration not stated),inactive: 5.89%,–
O=C(Nc1ccc(Cl)cc1)N1CCC(c2ccccc2)C1 (configuration not stated),–,"inconclusive: 4.11 µM [activator, partial curve]"
O=S(=O)(Nc1cccc(S(=O)(=O)N2CCCCC2)c1)c1ccc(Cl)s1,inactive: -15.3%,–
O=C(O)/C=C/C(=O)Nc1ccccc1-c1ccccc1,inactive: -0.483%,–
CN1CCc2c(sc3nc(SCC(=O)N4CCOCC4)nc(N)c23)C1,–,"inconclusive: 5.8 µM [inhibitor, partial curve, poor fit]"
CC1Cc2ccccc2N1C(=O)CSc1ncc(-c2ccc(F)cc2)n1C (configuration not stated),–,"inconclusive: 4.11 µM [activator, full curve]"
O=C(Nc1ccc(Br)cc1)c1cccc(N2C(=O)C3C4C=CC(C4)C3C2=O)c1 (configuration not stated),–,"inconclusive: 23.1 µM [inhibitor, single point]"
S=c1nc(-c2ccccc2Br)[nH][nH]1,inactive: 15.5%,–
c1ccc2c(Nc3ccc4c(c3)OCCO4)c3c(nc2c1)CCCC3,–,"inconclusive: 1.16 µM [inhibitor, single point]"
CCOC(=O)N1CCN(C(=O)CS(=O)(=O)c2cn(Cc3ccccc3C)c3ccccc23)CC1,–,active: 9.2 µM
CC1(C)CC2(CC(c3ccccc3F)c3ccc(O)c(O)c3O2)NC(=S)N1 (configuration not stated),inactive: 7.97%,–
CCN(CC)CCCNC(=O)c1[nH]c2ccccc2c1Sc1ccc(Cl)cc1,inactive: -15.7%,–
COc1ccccc1CNC(=O)CN(Cc1ccc(Cl)cc1)S(C)(=O)=O,inactive: -5.24%,–
COc1ccc(N2CC(O)=C(c3nc(-c4ccc(F)cc4)cs3)C2=N)cc1Cl,–,"inconclusive: 6.51 µM [inhibitor, single point]"
Cc1ccc(-n2nc(C)c(Sc3ccccc3[N+](=O)[O-])c2N)cc1,inactive: 8.5%,–
CCOC(=O)c1c(C)[nH]c(/C(C)=N/O)c1C,–,"inconclusive: 9.2 µM [inhibitor, partial curve, poor fit]"
O=C(Nc1ccc(-c2nc3cc(NC(=O)c4cccs4)ccc3o2)cc1)c1cccs1,–,"inconclusive: 3.66 µM [activator, single point]"
Cc1cccc(C)c1NC1=C(Cl)C(=O)OC1OC(C)C (configuration not stated),–,"inconclusive: 29.1 µM [inhibitor, single point]"
O=C1C2C3C=CC(C3)C2C(=O)N1c1ccc(-c2nc3ccccc3o2)cc1 (configuration not stated),–,"inconclusive: 2.31 µM [activator, full curve]"
CCc1nnc(NC(=O)c2ncc(Cl)c(Cl)c2Cl)s1,inactive: 13.9%,–
O=C(CSc1ccccc1)NCC1(N2CCOCC2)CCCCC1,–,"inconclusive: 17.8 µM [activator, partial curve, poor fit]"
O=C(c1ccc2nc3ccccc3c(=O)n2c1)N1CCN(Cc2ccc3c(c2)OCO3)CC1,–,"inconclusive: 23.1 µM [inhibitor, single point]"

Compound,"activity change, negative = inhibition",Potency
COc1ccc(Nc2ncnc3c2cnn3-c2ccccc2)cc1OC,–,"inconclusive: 16.4 µM [activator, partial curve, poor fit]"
Cc1ccccc1NC(=O)CSc1nc2cc3c(cc2cc1C)CCC3,inactive: 6.66%,–
CCOc1ccc(S(=O)(=O)N(C)c2ccc(OCC(=O)NCCc3ccc(OC)cc3)cc2)cc1,–,"inconclusive: 25.9 µM [inhibitor, partial curve, poor fit]"
CCN(C(=O)c1cc(S(=O)(=O)N2CCc3ccccc32)cn1C)c1ccccc1,inactive: -4.65%,–
NS(=O)(=O)c1cccc(NC(=O)CSc2nc3ccccc3c(=O)n2Cc2ccco2)c1,–,"inconclusive: 18.3 µM [inhibitor, single point]"
CSc1nnc(SCC(=O)NC(=O)c2ccccc2)s1,–,"inconclusive: 23.1 µM [activator, partial curve]"
O=C(CN1CCN(Cc2ccccc2Cl)C1=O)NC1CCCCCC1,–,"inconclusive: 20.6 µM [activator, partial curve]"
Cc1nn(-c2ccccc2)c(C)c1C(=O)OCC(=O)NC(=O)NC1CCCCC1,inactive: -26.1%,–
O=c1ccn(-c2cccc(C(F)(F)F)c2)nc1-c1ccn(-c2ccccc2F)n1,–,"inconclusive: 16.4 µM [inhibitor, partial curve]"
CCn1c(COc2cccc(OC)c2)nnc1SCC(=O)Nc1ccccc1C(=O)OC,–,"inconclusive: 25.9 µM [inhibitor, single point]"
CCCc1nn(C)c2c(=O)[nH]c(-c3ccccc3OCC)nc12,–,"inconclusive: 20.6 µM [inhibitor, single point]"
Cc1ccc(NC(=O)CSc2ncccn2)cc1S(=O)(=O)N1CCOCC1,–,"inconclusive: 25.9 µM [inhibitor, single point]"
N=c1c2c(n(Cc3cccc(Cl)c3)c3c1CCC3)CCCC2,–,"inconclusive: 1.16 µM [inhibitor, full curve]"
O=C(Oc1ccccc1C(=O)Nc1ccccc1)c1ccc(Br)c([N+](=O)[O-])c1,–,"inconclusive: 23.1 µM [activator, single point]"
CCCCNC(=O)Cc1ccc(Br)cc1,inactive: -1.81%,–
COC(=O)c1c(NC(=O)c2ccco2)sc(C(=O)Nc2ccc(F)cc2)c1C,–,"inconclusive: 4.11 µM [activator, partial curve]"
O=S(=O)(c1cccc(NC(=S)N2CCN(c3ccc(F)cc3)CC2)c1)C(F)F,–,"inconclusive: 18.4 µM [inhibitor, single point]"
O=[N+]([O-])c1cccc(/C=N/NC2=NCCCCC2)c1,–,"inconclusive: 14.6 µM [activator, partial curve]"
Cc1ccc(CNC(=O)CS(=O)Cc2nc(-c3ccccc3C)oc2C)cc1 (configuration not stated),inactive: -8.86%,–
COCCNC(=O)/C(C#N)=C/C(C)=C/c1ccccc1,–,"inconclusive: 23.1 µM [activator, single point]"
CC(=O)c1c(C)[nH]c(C(=O)N2CCN(C(=O)c3ccco3)CC2)c1C,inactive: 9.53%,–
CCOc1ccccc1NC(=O)C1CCN(C(=O)NCc2ccccc2)CC1,inactive: -0.367%,–
Nc1nc(-c2cc3ccccc3o2)cs1,–,"inconclusive: 9.2 µM [activator, partial curve]"
COC(=O)c1sc(S(=O)(=O)N2CCCCC2C)c(C(=O)OC)c1C (configuration not stated),–,"inconclusive: 35.5 µM [inhibitor, single point]"

# Compounds from the list above that have a furan ring, fused or not, in the order listed:
Compound,"activity change, negative = inhibition",Potency
NS(=O)(=O)c1cccc(NC(=O)CSc2nc3ccccc3c(=O)n2Cc2ccco2)c1,–,"inconclusive: 18.3 µM [inhibitor, single point]"
COC(=O)c1c(NC(=O)c2ccco2)sc(C(=O)Nc2ccc(F)cc2)c1C,–,"inconclusive: 4.11 µM [activator, partial curve]"
CC(=O)c1c(C)[nH]c(C(=O)N2CCN(C(=O)c3ccco3)CC2)c1C,inactive: 9.53%,–
Nc1nc(-c2cc3ccccc3o2)cs1,–,"inconclusive: 9.2 µM [activator, partial curve]"

# More structures

Compound,"activity change, negative = inhibition",Potency
CCOC(=O)c1[nH]c2ccc(OC)cc2c1NC(=O)c1ccccc1C(=O)O,–,"inconclusive: 18.3 µM [activator, partial curve]"
CCC1=NN(C(=O)COc2ccccc2)C(O)(c2ccncc2)C1 (configuration not stated),inactive: -21.5%,–
CCCOc1ccc(C(=O)NCC(c2cccs2)N(C)C)cc1 (configuration not stated),inactive: 18.1%,–
COc1ccc(C(=O)Nc2cc(C(C)=O)c(/C=C/N(C)C)oc2=O)cc1,inactive: -6.83%,–
c1ccc(C(CN2CCOCC2)c2ccccc2)cc1,inactive: -0.164%,–
COc1ccc(C)cc1NC(=O)C1CCN(S(=O)(=O)c2ccc3c(c2)NC(=O)CO3)CC1,–,"inconclusive: 32.6 µM [inhibitor, single point]"
Cc1ccc(-c2nc(=S)c3c(n2Cc2cccnc2)CC(C)(C)OC3)cc1,inactive: -4.84%,–
COc1ccc(C=C2C(=O)OC(C)(C)OC2=O)cc1OC,–,"inconclusive: 29.1 µM [activator, partial curve, poor fit]"
COc1cc2c(cc1OC)C(Nc1ccc(S(N)(=O)=O)cc1)=NC(C)(C)C2,–,"inconclusive: 20.6 µM [activator, partial curve, poor fit]"
CSCCC(NC(=O)c1ccc(C(C)(C)C)cc1)C(=O)OCC(=O)N1CCCC1=O (configuration not stated),–,"inconclusive: 14.6 µM [activator, partial curve, poor fit]"
Cc1c(C(=O)Nc2ccccc2Cl)oc2ccc(S(=O)(=O)N3CCC4(CC3)OCCO4)cc12,–,active: 3.66 µM
O=C(NC(=S)Nc1ccccc1N1CCN(C(=O)c2ccccc2)CC1)c1cccs1,–,"inconclusive: 4.61 µM [inhibitor, partial curve, poor fit]"
COc1cccc(-c2cc(C(F)(F)F)nc(NCc3ccco3)n2)c1,–,"inconclusive: 20.6 µM [inhibitor, partial curve]"
O=C(CNS(=O)(=O)c1ccc2c(c1)OCCCO2)N1CCN(c2ccc(F)cc2)CC1,–,"inconclusive: 20.6 µM [inhibitor, single point]"
CC1CN(S(=O)(=O)c2ccc(C(=O)Nc3sccc3C(N)=O)cc2)CC(C)O1 (configuration not stated),–,active: 18.4 µM
CCc1c(O)nc(SC2CC(=O)N(c3ccc(F)c(Cl)c3)C2=O)[nH]c1=O (configuration not stated),inactive: -7.76%,–
COc1cc(OC)cc(-c2nc(N)n[nH]2)c1,–,"inconclusive: 0.651 µM [activator, single point]"
COc1ccccc1C(C)NC(=O)CCOc1cccc(C)c1 (configuration not stated),–,"inconclusive: 0.231 µM [inhibitor, single point]"
COc1cccc(CNC(=O)c2cc(=O)[nH]c3ccc(S(=O)(=O)N4CCOCC4)cc23)c1,–,"inconclusive: 6.51 µM [activator, partial curve]"
Cc1ccc(-n2nc(C)c3c(C)c(CCC(=O)NCc4ccco4)c(C)nc32)cc1,–,active: 23.1 µM
Cc1cccc2nc(CNC(=O)C3CCC(=O)N(Cc4ccccc4F)C3)cn12 (configuration not stated),inactive: 15.5%,–
c1ccc(CN2CCC3(CCCc4ccccc43)CC2)cc1,inactive: -18.9%,–
CCOC(=O)N1CCN(C(=O)c2ccc3c(c2)N=C(C)c2cc(Cl)ccc2S3)CC1,–,active: 3.66 µM
CCc1ccc(NC(=O)C(=O)NCC2CCCO2)cc1 (configuration not stated),–,"inconclusive: 10.3 µM [activator, partial curve]"
